Most values lie at the floor of the assay. Slopes are relative: functional sequences can read slightly below zero.
These substances were tested on Saccharomyces cerevisiae PS128 hsf1 delta, HSF1(1-493) fusion (assay: growth estimate (transactivation domain function in HSF1 fusion, heat-shock survival) (a.u. (slope of normalised read count over time)); higher = stronger growth at 37°C, i.e. more transactivation activity). Details: library: random library.

| Substance | growth estimate |
| --- | --- |
| GVATLVGANKSLCLNYTGFA | < -0.25 |
| YCLFSVLGPGRELGDR | < -0.25 |
| MWRLFVSAKRFDGGELYTVR | < -0.25 |
| YSFYWRIGLR | -0.246 |
| KSANAPWDELPTSPVLPLHE | < -0.25 |
| YRGQKYATYAAADFSARPDW | < -0.25 |
| GYDTEPGLAT | < -0.25 |
| CAAFSQETSSLRASPRVTSK | < -0.25 |
| GISVSLENRY | < -0.25 |
| RVSREVTSPDQ | < -0.25 |
| NECAAYPVGYDFCTSLSIDA | < -0.25 |
| TLCRNATTLYSGFRANVVLV | < -0.25 |
| GEQKISISDNTDLPCGSRPS | < -0.25 |
| LIKGTASAPAHSPACGPAHQ | < -0.25 |
| YDSSNYECG | < -0.25 |
| EESPASQVSGCVSVLVYRMI | < -0.25 |
| PRLMQKRSSLSGDMGATASR | < -0.25 |
| DRITTSGEIPESPSVRGRKA | < -0.25 |
| LRQFKCDHCASARTVRATAG | < -0.25 |
| NSHRRRRRTGDRRTGVLGSS | < -0.25 |
| SPYGCLSERRSADLSIYNGW | < -0.25 |
| NHQ | < -0.25 |
| RAPTDNVQTCRDVRLSLMDQ | < -0.25 |

| Substance | growth estimate |
| --- | --- |
| RGYRTLPRA | < -0.25 |
| RQY | < -0.25 |
| RTRHVKAIWRGFFC | < -0.25 |
| EYEDYLPVAEVGMSCEVCSS | < -0.25 |
| AGIACGLNGCPYQVAGLGQP | < -0.25 |
| RWKMRGEDKASGCGQVACRV | < -0.25 |
| SPKF | < -0.25 |
| GEGLVRQRMHVY | < -0.25 |
| RADIPLRHRN | < -0.25 |
| YLVGLPYRLDLSMHHR | < -0.25 |
| HTKE | < -0.25 |
| RASI | < -0.25 |
| HRIV | < -0.25 |
| NSPKCTSRLEQAQRWNACLQ | < -0.25 |
| STGRGGALRSSQVMFRLGWT | < -0.25 |
| ECPRSLGKM | < -0.25 |
| QARRQ | < -0.25 |
| CSLIMTSHSAPHGLEASCCA | < -0.25 |
| TMYKGHAMGSCAV | < -0.25 |
| VWG | < -0.25 |
| YQVQGDTGMHDSDSRTLDGP | < -0.25 |
| EQGAGPGFTVLNALGRSHQG | < -0.25 |
| RSTRF | < -0.25 |

Taken from the results shown (5 entries):

| Substance | growth estimate |
| --- | --- |
| TMYKGHAMGSCAV | < -0.25 |
| VWG | < -0.25 |
| YQVQGDTGMHDSDSRTLDGP | < -0.25 |
| EQGAGPGFTVLNALGRSHQG | < -0.25 |
| RSTRF | < -0.25 |

Continued.

| Substance | growth estimate |
| --- | --- |
| SFD | < -0.25 |
| NREHDAVIKRDGGIG | < -0.25 |
| YEGADGISCTNDPWNICGWW | 2.55 |
| MNKKWASHPERSCLAYV | < -0.25 |
| LFPEWCPAKRWFYQARTSSH | < -0.25 |
| EPGRLGVMSSSQLAPNSFER | < -0.25 |
| PDADAI | < -0.25 |
| TRASVDEVAKHRSKSSGPPA | < -0.25 |
| EIRICSAL | < -0.25 |
| IGDYESIVSCTRFKGCNKGI | < -0.25 |
| HGRTA | < -0.25 |
| ASYHSTVGTYCSVLHEYGKE | < -0.25 |
| WSNAVMDGY | < -0.25 |
| PGCE | < -0.25 |
| ISGSTPCCWVSCNSCGVIGA | < -0.25 |
| AKTNG | < -0.25 |
| KARGARV | < -0.25 |
| GGI | < -0.25 |
| TLHLFLLKYNLEKSYAGTDL | < -0.25 |
| LHSQFNSLE | < -0.25 |
| TATSWIWVDKTGMRAYLITD | < -0.25 |
| RLLRKSHLLAVS | < -0.25 |
| RMLKVTSNWYLRAY | < -0.25 |

| Substance | growth estimate |
| --- | --- |
| GRSSVEGCPWVVQTCIVHTT | < -0.25 |
| LQMLGRG | < -0.25 |
| GRGKPGRNAMGG | < -0.25 |
| RWF | < -0.25 |
| RACHSCPRSDRFPTVLVSPC | < -0.25 |
| KVFLWRVLETW | < -0.25 |
| RYLYTAYCVVAGTHVSNQGV | < -0.25 |
| VERPSPHVVGVLWWHHPTGA | < -0.25 |
| ESLGPTIDLWAGVQLSGGAR | < -0.25 |
| SWLLPSHLGDTVMSICLKIY | < -0.25 |
| HVHGKELSV | < -0.25 |
| RSIIWYMVIRTRPFGATFRN | -0.214 |
| VPLRV | < -0.25 |
| TLSPTKTCTFHCVVGCCCVG | < -0.25 |
| NGLTC | -0.126 |
| DRRERSRWDKTISKGYCSLG | < -0.25 |
| STEGWPLKTIDVRRKRTP | < -0.25 |
| TGDSFLGSVIEGYWY | < -0.25 |
| GIGDWMLAICTPAGSID | < -0.25 |
| LFQLNSAHVIFRWSQPCHES | < -0.25 |
| IRPFTPVRVCAVCG | < -0.25 |
| VLPLDKVLCVLRRT | < -0.25 |
| GIASRTCQRLYRMINRCFAV | < -0.25 |

| Substance | growth estimate |
| --- | --- |
| LPA | < -0.25 |
| QRDVMSRGNERKS | < -0.25 |
| DEWILVGDPVTPIGYGQFHS | < -0.25 |
| EGIC | < -0.25 |
| IHWCPTCCARWDTLHFLTLC | < -0.25 |
| EKRVTRVEFVGVHVDSDGRE | < -0.25 |
| RAESQASGIRAVADASVVTR | < -0.25 |
| RISTSSWITSLCHQSLKIPQ | < -0.25 |
| GFANIPQYPAAHLESSSAHH | < -0.25 |
| SLRADFRVLSREFTSRILRA | < -0.25 |
| ANGVPVGRLSIKFLPIRVCA | < -0.25 |
| TQAGASVSNDTSYSK | < -0.25 |
| VGP | < -0.25 |
| RYTRLRQPRDVTSLHLSHVR | < -0.25 |
| ALAHPSLCRVSLVVFMPPE | < -0.25 |
| SPTNL | < -0.25 |
| ISYPELIYP | < -0.25 |
| RKQFAD | < -0.25 |
| SESPRIGLLQHNTALSSYGF | < -0.25 |
| RVIGGTGDTGYN | < -0.25 |
| LPSSIC | < -0.25 |
| ERKRALRYYRIKGISCRVST | < -0.25 |
| SDRTKWATRPVPK | < -0.25 |

A second format for some results above.
Substance | growth estimate
ISYPELIYP | < -0.25
RKQFAD | < -0.25

Next part

| Substance | growth estimate |
| --- | --- |
| QWCCHTRRRRWGISSTASRT | < -0.25 |
| DCTYCMGYRAVRAS | < -0.25 |
| ADV | < -0.25 |
| RIQVSPMDYLLPRRA | < -0.25 |
| ATILFIRHLSVFCVPDKLGL | < -0.25 |
| RTLLSRGLPLVSRHGTWSPT | < -0.25 |
| FKLSLWINMAYRVQRFHMRS | -0.245 |
| RIW | < -0.25 |
| AGNTCA | < -0.25 |
| MPQ | < -0.25 |
| GLHS | < -0.25 |
| GLGYLRRGGMIAKPRPPWRL | < -0.25 |
| LTLYGPANLRCCLTPGDGAR | < -0.25 |
| WRM | < -0.25 |
| GISPLFDVSTAFVVL | < -0.25 |
| YKPVCANTL | < -0.25 |
| HAAAIGLREK | < -0.25 |
| PRHSAGQ | < -0.25 |
| LAAISLCTGSHGVRPESRTL | < -0.25 |
| EPRRSA | < -0.25 |
| VKLPARSSNGLVQLH | < -0.25 |
| TSMNAPTRHF | < -0.25 |
| TIFNDNGT | < -0.25 |

| Substance | growth estimate |
| --- | --- |
| PVCSWDITPTKAVGGG | < -0.25 |
| GVPPKSSQATVIRV | < -0.25 |
| PSRWKCVHLRAGSQGSKTTH | < -0.25 |
| GRALVDFYSV | < -0.25 |
| TDSFWRRSGSANA | < -0.25 |
| SANLAD | < -0.25 |
| GSCIPASLNVVPRRGLALIS | < -0.25 |
| VQFGRGGPLH | < -0.25 |
| APEFTVC | < -0.25 |
| VGS | < -0.25 |
| PNDRALTPLRCF | < -0.25 |
| VLVSRPFMWPHWKARGEVSS | < -0.25 |
| TKGIEYERCDKVRVRTIMRG | < -0.25 |
| TRAGQFVGRSGLRHRGLPVL | < -0.25 |
| NLLSNGSAER | < -0.25 |
| RGVYTTF | < -0.25 |
| TCHFDIDNGYAWYVLQSSPG | < -0.25 |
| LLWSVPYSGLGLTASTSAYS | < -0.25 |
| KRLFTCYRVCPIKYHSLIMA | < -0.25 |
| LAIAESLFRFKRQGPLCSRT | < -0.25 |
| HWTNSFLYSGLVIQADPLF | < -0.25 |
| RCGENITTYARVTLR | < -0.25 |

Reference: the supplement of paper PMC5949888
